# At least one compound was matched to its structure with a doubt left.
# Tested on: monosomes
# Experiment: Monosome formation in cortical neurons
# Type: cell-based, rat
# Conditions: compound alone
smiles,measurement,value
CO[C@H]1C[C@@H]2CC[C@@H](C)[C@@](O)(O2)C(=O)C(=O)N2CCCC[C@H]2C(=O)O[C@H]([C@H](C)C[C@@H]2CC[C@@H](O)[C@H](OC)C2)CC(=O)[C@H](C)/C=C(\C)[C@@H](O)[C@@H](OC)C(=O)[C@H](C)C[C@H](C)/C=C/C=C/C=C/1C [rapamycin],monosome formation,monosome formation
